Test results from patent publication US5225530A, “Polypeptide useful for the preparation of antimalarial vaccines and of diagnostic kits for the detection of malarial affections” (priority 1986, dated 1993).
Part of at least one peptide drawing is inferred or uncertain, most often the ends. Peptide text beside a SMILES is read from it.

Legend:
[1] = system: C57BL/6, C57BL/10, B10.A (5R), BALB/c and CBA/Ca mice; experiment: Immunogenicity in inbred mice, sera analysed by ELISA; type: in vivo
lymphonode cells = experiment: Lymph node cell proliferation, [3H]-thymidine incorporation; type: cell-based, mice
human anti-RI antibodies = experiment: Competition ELISA, specificity of human anti-RI antibodies; type: binding; conditions: sera pre-incubated with the peptide; slabs coated with RI peptide 10 μg/ml

| SMILES | anti-(NANP) antibodies in the sera of immunized mice ([1]; C57BL/6 mice, 17 days after the first inoculation, ELISA on (NANP)40, 1 μg/ml) | cellular proliferation (lymphonode cells; cells of C57BL/6, C57BL/10 and B10.A (5R) mice, 10 μg/ml of peptide in culture) | proliferation of T cells (lymphonode cells; summary statement) | anti-RI antibodies in the sera of immunized mice ([1]; mice immunized with RI peptide only, ELISA) | inhibition of the bond between antibodies of positive human sera and RI peptide (human anti-RI antibodies) | cellular proliferation (lymphonode cells; cells of all mice immunized with the RI peptide) |
| --- | --- | --- | --- | --- | --- | --- |
| CC(C)C[C@H](NC(=O)[C@H](CCCCN)NC(=O)[C@H](CCCCN)NC(=O)[C@H](Cc1c[nH]cn1)NC(=O)[C@H](CCCCN)NC(=O)[C@@H]1CCCN1C(=O)[C@@H](N)CCCCN)C(=O)N[C@@H](CCCCN)C(=O)N[C@@H](CCC(N)=O)C(=O)N1CCC[C@H]1C(=O)NCC(=O)N[C@@H](CC(=O)O)C(=O)NCC(=O)N[C@@H](CC(N)=O)C(=O)N1CCC[C@H]1C(=O)N[C@@H](CC(N)=O)C(=O)N[C@@H](C)C(=O)N[C@@H](CC(N)=O)C(=O)N1CCC[C@H]1C(=O)N[C@@H](CC(N)=O)C(=O)N[C@@H](C)C(=O)N[C@@H](CC(N)=O)C(=O)N1CCC[C@H]1C(=O)N[C@@H](CC(N)=O)C(=O)N[C@@H](C)C(=O)N[C@@H](CC(N)=O)C(=O)N1CCC[C@H]1C(=O)N[C@@H](CC(N)=O)C(=O)N[C@@H](C)C(=O)O [RI-(NANP)3 -NA, Lys-Pro-Lys-His-Lys-Lys-Leu-Lys-Gln-Pro-Gly-Asp-Gly-Asn-Pro-(Asn-Ala-Asn-Pro)3 -Asn-Ala] | presence | high cellular proliferation | induces the proliferation of T cells | – | – | – |
| CC(C)C[C@H](NC(=O)[C@H](CCCCN)NC(=O)[C@H](CCCCN)NC(=O)[C@H](Cc1c[nH]cn1)NC(=O)[C@H](CCCCN)NC(=O)[C@@H]1CCCN1C(=O)[C@@H](N)CCCCN)C(=O)N[C@@H](CCCCN)C(=O)N[C@@H](CCC(N)=O)C(=O)N1CCC[C@H]1C(=O)NCC(=O)N[C@@H](CC(=O)O)C(=O)NCC(=O)N[C@@H](CC(N)=O)C(=O)N1CCC[C@H]1C(=O)O [RI] (H-KPKHKKLKQPGDGNP-OH) | – | – | – | absence of anti-RI antibodies | inhibited | absence of a cellular proliferation |
